Assay results: patent US10072023B2, “Diarylethene compounds and uses thereof” (SWITCH MATERIALS, INC., priority 2011, dated 2018)

Experiment: Electrochemical switching (Switch: reversible photochromic/electrochromic conversion)
Assay type: physicochemical
Set-up: key: Y: “Switch” refers to the ability (yes or no) of the compound to be reversibly converted under photochromic and electrochromic conditions between a ring-open isomer and ring-closed isomer
Settings: reversibly converted under photochromic and electrochromic conditions

Q: Which Switch does the source give for `Cc1sc(-c2cc(C3=C(c4cc(-c5sc(C)c6c5OCCO6)sc4-c4sc(C)c5c4OCCO5)C(F)(F)C(F)(F)C3(F)F)c(-c3sc(C)c4c3OCCO4)s2)c2c1OCCO2` [S036] here?
A: Its Switch is “Y”.

Q: For `N#Cc1ccc(-c2ccc(-c3cc(C4=C(c5cc(-c6ccc(-c7ccc(C#N)s7)s6)sc5-c5cccs5)C(F)(F)C(F)(F)C4(F)F)c(-c4cccs4)s3)s2)s1` [S037, 4″,4″″″-(perfluorocyclopent-1-ene-1,2-diyl)bis(([2,2′:5′,2″:5″,2″′-quaterthiophene]-5-carbonitrile))], which Switch is on record?
A: Its Switch is “Y”.

Q: With `FC1(F)C(c2cc(-c3ccc(/C=C/c4ccccc4)s3)sc2-c2cccs2)=C(c2cc(-c3ccc(/C=C/c4ccccc4)s3)sc2-c2cccs2)C(F)(F)C1(F)F` [S038, (E)-4′,4″″-(perfluorocyclopent-1-ene-1,2-diyl)bis(5-((E)-styryl)-2,2′:5′,2″-terthiophene)] as the molecule, how does the Switch read?
A: Its Switch is “Y”.

Q: Which Switch does the source give for `Cc1cc(-c2sc(C)c(C)c2C2=C(c3c(-c4cc(C)c(C)s4)sc(C)c3C)C(F)(F)C(F)(F)C2(F)F)sc1C` [S039, 3,3′-(perfluorocyclopent-1-ene-1,2-diyl)bis(4,4′,5,5′-tetramethyl-2,2′-bithiophene)] here?
A: Its Switch is “Y”.

Q: For `CC(C)(C)c1ccc(-c2cc(C3=C(c4cc(-c5ccc(C(C)(C)C)cc5)sc4-c4ccc(C(C)(C)C)cc4)C(F)(F)C(F)(F)C3(F)F)c(-c3ccc(C(C)(C)C)cc3)s2)cc1` [S042], which Switch is on record?
A: The Switch was “Y”.

Q: For `FC(F)(F)c1ccc(-c2cc(C3=C(c4cc(-c5ccc(C(F)(F)F)cc5)sc4-c4ccc(C(F)(F)F)cc4)C(F)(F)C(F)(F)C3(F)F)c(-c3ccc(C(F)(F)F)cc3)s2)cc1` [S044, 3,3′-(perfluorocyclopent-1-ene-1,2-diyl)bis(2,5-bis(4-(trifluoromethyl)phenyl)thiophene)], which Switch is on record?
A: The Switch was “Y”.

Q: For `CC(C)(C)c1ccc(-c2cc(C3=C(c4cc(-c5ccc(C(C)(C)C)cc5)sc4-c4cccs4)C(F)(F)C(F)(F)C3(F)F)c(-c3cccs3)s2)cc1` [S049, 3,3″-(perfluorocyclopent-1-ene-1,2-diyl)bis(5-(4-(tert-butyl)phenyl)-2,2′-bithiophene)], which Switch is on record?
A: Its Switch is “Y”.

Q: For `CC(C)(C)c1ccc(-c2sc(-c3cccs3)cc2C2=C(c3cc(-c4cccs4)sc3-c3ccc(C(C)(C)C)cc3)C(F)(F)C(F)(F)C2(F)F)cc1` [S052, 4,4″-(perfluorocyclopent-1-ene-1,2-diyl)bis(5-(4-(tert-butyl)phenyl)-2,2′-bithiophene)], which Switch is on record?
A: The Switch was “Y”.

Q: Which Switch does the source give for `COc1ccc(-c2cc(C3=C(c4cc(-c5ccc(OC)cc5)sc4-c4ccc(OC)cc4)C(F)(F)C(F)(F)C3(F)F)c(-c3ccc(OC)cc3)s2)cc1` [S054, 3,3′-(perfluorocyclopent-1-ene-1,2-diyl)bis(2,5-bis(4-methoxyphenyl)thiophene)] here?
A: The Switch was “Y”.

Q: With `c1ccc(-c2cc(-c3nc(-c4ccccc4)sc3-c3cc(-c4ccccc4)sc3-c3ccccc3)c(-c3ccccc3)s2)cc1` [S055, 4,5-bis(2,5-diphenylthiophen-3-yl)-2-phenylthiazole] as the molecule, how does the Switch read?
A: The Switch was “Y”.

Q: With `FC1(F)C(c2cc(-c3ccc(Cl)cc3)sc2-c2ccc(Cl)cc2)=C(c2cc(-c3ccc(Cl)cc3)sc2-c2ccc(Cl)cc2)C(F)(F)C1(F)F` [S056, 3,3′-(perfluorocyclopent-1-ene-1,2-diyl)bis(2,5-bis(4-chlorophenyl)thiophene)] as the molecule, how does the Switch read?
A: The Switch was “Y”.

Q: With `CC(C)(C)c1ccc(-c2sc(-c3ccccc3)cc2C2=C(c3cc(-c4ccccc4)sc3-c3ccc(C(C)(C)C)cc3)C(F)(F)C(F)(F)C2(F)F)cc1` [S057, 3,3′-(perfluorocyclopent-1-ene-1,2-diyl)bis(2-(4-tert-butylphenyl)-5-phenylthiophene)] as the molecule, how does the Switch read?
A: The Switch was “Y”.

Q: For `CC(C)(C)c1ccc(-c2sc(-c3ccc(Cl)cc3)cc2C2=C(c3cc(-c4ccc(Cl)cc4)sc3-c3ccc(C(C)(C)C)cc3)C(F)(F)C(F)(F)C2(F)F)cc1` [S060], which Switch is on record?
A: The Switch was “Y”.

Q: For `CC(=O)c1ccc(-c2cc(C3=C(c4cc(-c5ccccc5)sc4-c4ccc(C(C)(C)C)cc4)C(F)(F)C(F)(F)C3(F)F)c(-c3ccc(C(C)(C)C)cc3)s2)cc1` [S065, 1-(4-(5-(4-tert-butylphenyl)-4-(2-(2-(4-tert-butylphenyl)-5-phenylthiophen-3-yl)-3,3,4,4,5,5-hexafluorocyclopent-1-enyl)thiophen-2-yl)phenyl)ethanone], which Switch is on record?
A: Its Switch is “Y”.

Q: With `CC(C)(C)c1ccc(-c2sc(-c3ccc(C4(C)OCCO4)cc3)cc2C2=C(c3cc(-c4ccc(C5(C)OCCO5)cc4)sc3-c3ccc(C(C)(C)C)cc3)C(F)(F)C(F)(F)C2(F)F)cc1` [S066, 2,2′-((4,4′-(perfluorocyclopent-1-ene-1,2-diyl)bis(5-(4-(tert-butyl)phenyl)thiophene-4,2-diyl))bis(4,1-phenylene))bis(2-methyl-1,3-dioxolane)] as the molecule, how does the Switch read?
A: The Switch was “Y”.

Q: Which Switch does the source give for `CC(C)(C)c1ccc(-c2sc(-c3ccc(C(C)(C)O)cc3)cc2C2=C(c3cc(-c4ccc(C(C)(C)O)cc4)sc3-c3ccc(C(C)(C)C)cc3)C(F)(F)C(F)(F)C2(F)F)cc1` [S067, 2,2′-((4,4′-(perfluorocyclopent-1-ene-1,2-diyl)bis(5-(4-(tert-butyl)phenyl)thiophene-4,2-diyl))bis(4,1-phenylene))bis(propan-2-ol)] here?
A: The Switch was “Y”.

Q: Which Switch does the source give for `COCCOCCOCCOC(C)(C)c1ccc(-c2cc(C3=C(c4cc(-c5ccc(C(C)(C)OCCOCCOCCOC)cc5)sc4-c4ccc(C(C)(C)C)cc4)C(F)(F)C(F)(F)C3(F)F)c(-c3ccc(C(C)(C)C)cc3)s2)cc1` [S068, 12,12′-((4,4′-(perfluorocyclopent-1-ene-1,2-diyl)bis(5-(4-(tert-butyl)phenyl)thiophene-4,2-diyl))bis(4,1-phenylene))bis(12-methyl-2,5,8,11-tetraoxatridecane)] here?
A: The Switch was “Y”.

Q: Which Switch does the source give for `CC(C)(C)c1ccc(-c2sc(C(C)(C)C)cc2C2=C(c3cc(C(C)(C)C)sc3-c3ccc(C(C)(C)C)s3)C(F)(F)C(F)(F)C2(F)F)s1` [S073, 3,3′-(perfluorocyclopent-1-ene-1,2-diyl)bis(5,5′-di-tert-butyl-2,2′-bithiophene)] here?
A: Its Switch is “Y”.

Q: For `N#Cc1ccc(-c2cc(C3=C(c4cc(-c5ccc(C#N)cc5)sc4-c4ccc(C#N)cc4)C(F)(F)C(F)(F)C3(F)F)c(-c3ccc(C#N)cc3)s2)cc1` [S074, 3,3′-(perfluorocyclopent-1-ene-1,2-diyl)bis(2,5-bis(4-cyanophenyl)thiophene)], which Switch is on record?
A: The Switch was “Y”.

Q: Which Switch does the source give for `c1ccc(-c2nc(-c3cc(-c4cccs4)sc3-c3cccs3)c(-c3cc(-c4cccs4)sc3-c3cccs3)s2)cc1` [S075] here?
A: Its Switch is “Y”.

Q: Which Switch does the source give for `CCCCCCCCc1ccc(-c2oc3ccccc3c2C2=C(c3c(-c4ccc(CCCCCCCC)cc4)oc4ccccc34)C(F)(F)C(F)(F)C2(F)F)cc1` [S079, 1,2-bis(2-(4-n-octylphenyl)-1-benzofuran-3-yl)perfluorocyclopentene] here?
A: Its Switch is “Y”.

Q: Which Switch does the source give for `COc1ccc(-c2oc3ccc(OC)cc3c2C2=C(c3c(-c4ccc(OC)cc4)oc4ccc(OC)cc34)C(F)(F)C(F)(F)C2(F)F)cc1` [S083] here?
A: The Switch was “Y”.

Q: With `Oc1ccc(-c2cc(C3=C(c4cc(-c5ccc(O)cc5)sc4-c4ccc(O)cc4)C(F)(F)C(F)(F)C3(F)F)c(-c3ccc(O)cc3)s2)cc1` [S084, 3,3′-(perfluorocyclopent-1-ene-1,2-diyl)bis(2,5-bis(4-hydroxyphenyl)thiophene)] as the molecule, how does the Switch read?
A: Its Switch is “Y”.

Q: Which Switch does the source give for `COc1ccc(-c2sc(-c3ccc(C#N)cc3)cc2C2=C(c3cc(-c4ccc(C#N)cc4)sc3-c3ccc(OC)cc3)C(F)(F)C(F)(F)C2(F)F)cc1` [S085] here?
A: Its Switch is “Y”.

Q: With `COc1ccc(-c2cc(C3=C(c4cc(-c5ccc(OC)cc5)sc4-c4ccc(C#N)cc4)C(F)(F)C(F)(F)C3(F)F)c(-c3ccc(C#N)cc3)s2)cc1` [S086, 4,4′-(3,3′-(perfluorocyclopent-1-ene-1,2-diyl)bis(5-(4-methoxyphenyl)thiophene-3,2-diyl))dibenzonitrile] as the molecule, how does the Switch read?
A: The Switch was “Y”.

Q: Which Switch does the source give for `COc1ccc(-c2cc(C3=C(c4cc(-c5ccc(C#N)cc5)sc4-c4ccc(OC)cc4)C(F)(F)C(F)(F)C3(F)F)c(-c3ccc(C#N)cc3)s2)cc1` [S087, 4-(3-(2-(5-(4-cyanophenyl)-2-(4-methoxyphenyl)thiophen-3-yl)-3,3,4,4,5,5-hexafluorocyclopent-1-en-1-yl)-5-(4-methoxyphenyl)thiophen-2-yl)benzonitrile] here?
A: The Switch was “Y”.

Q: With `COc1ccc(-c2sc(-c3ccc(/C=C/c4ccccc4)cc3)cc2C2=C(c3cc(-c4ccc(/C=C/c5ccccc5)cc4)sc3-c3ccc(OC)cc3)C(F)(F)C(F)(F)C2(F)F)cc1` [S088, (E)-3,3′-(perfluorocyclopent-1-ene-1,2-diyl)bis(2-(4-methoxyphenyl)-5-(4-((E)-styryl)phenyl)thiophene)] as the molecule, how does the Switch read?
A: The Switch was “Y”.

Q: With `COc1ccc(-c2sc(-c3ccc(/C=C/C=C/c4ccccc4)cc3)cc2C2=C(c3cc(-c4ccc(/C=C/C=C/c5ccccc5)cc4)sc3-c3ccc(OC)cc3)C(F)(F)C(F)(F)C2(F)F)cc1` [S089, 3,3′-(perfluorocyclopent-1-ene-1,2-diyl)bis(2-(4-methoxyphenyl)-5-(4-((1E,3E)-4-phenylbuta-1,3-dien-1-yl)phenyl)thiophene)] as the molecule, how does the Switch read?
A: The Switch was “Y”.

Q: For `COc1ccc(-c2sc(-c3ccc(OCCOc4ccc(N(c5ccc(Cl)cc5)c5ccc(Cl)cc5)cc4)cc3)cc2C2=C(c3cc(-c4ccc(OCCOc5ccc(N(c6ccc(Cl)cc6)c6ccc(Cl)cc6)cc5)cc4)sc3-c3ccc(OC)cc3)C(F)(F)C(F)(F)C2(F)F)cc1` [S090, 4,4′-(((((4,4′-(perfluorocyclopent-1-ene-1,2-diyl)bis(5-(4-methoxyphenyl)thiophene-4,2-diyl))bis(4,1-phenylene))bis(oxy))bis(ethane-2,1-diyl))bis(oxy))bis(N,N-bis(4-chlorophenyl)aniline)], which Switch is on record?
A: Its Switch is “Y”.

Q: With `CCOc1ccc(-c2cc(C3=C(c4cc(-c5ccc(OCC)cc5)sc4-c4ccc(OCC)cc4)C(F)(F)C(F)(F)C3(F)F)c(-c3ccc(OCC)cc3)s2)cc1` [S091, 3,3′-(perfluorocyclopent-1-ene-1,2-diyl)bis(2,5-bis(4-ethoxyphenyl)thiophene)] as the molecule, how does the Switch read?
A: Its Switch is “Y”.

Q: Which Switch does the source give for `CC(C)Oc1ccc(-c2cc(C3=C(c4cc(-c5ccc(OC(C)C)cc5)sc4-c4ccc(OC(C)C)cc4)C(F)(F)C(F)(F)C3(F)F)c(-c3ccc(OC(C)C)cc3)s2)cc1` [S092, 3,3′-(perfluorocyclopent-1-ene-1,2-diyl)bis(2,5-bis(4-isopropoxyphenyl)thiophene)] here?
A: The Switch was “Y”.
